From paper PMC7713384
Results are given in words; binding and its absence hold for the method and conditions named. Some binding calls cover weakened binding; strength is not graded here. Blank lines part the entries; values can stand above or below the substance they belong to.

Protein sequences, listed by entry. Tags and fused reporters are not part of them. Lines headed by an entry give the natural chain unless they say otherwise; changes in a name come on top. Chains listed by the source or under a name are the forms on record and can include a tag or linker.
UniProt P19634: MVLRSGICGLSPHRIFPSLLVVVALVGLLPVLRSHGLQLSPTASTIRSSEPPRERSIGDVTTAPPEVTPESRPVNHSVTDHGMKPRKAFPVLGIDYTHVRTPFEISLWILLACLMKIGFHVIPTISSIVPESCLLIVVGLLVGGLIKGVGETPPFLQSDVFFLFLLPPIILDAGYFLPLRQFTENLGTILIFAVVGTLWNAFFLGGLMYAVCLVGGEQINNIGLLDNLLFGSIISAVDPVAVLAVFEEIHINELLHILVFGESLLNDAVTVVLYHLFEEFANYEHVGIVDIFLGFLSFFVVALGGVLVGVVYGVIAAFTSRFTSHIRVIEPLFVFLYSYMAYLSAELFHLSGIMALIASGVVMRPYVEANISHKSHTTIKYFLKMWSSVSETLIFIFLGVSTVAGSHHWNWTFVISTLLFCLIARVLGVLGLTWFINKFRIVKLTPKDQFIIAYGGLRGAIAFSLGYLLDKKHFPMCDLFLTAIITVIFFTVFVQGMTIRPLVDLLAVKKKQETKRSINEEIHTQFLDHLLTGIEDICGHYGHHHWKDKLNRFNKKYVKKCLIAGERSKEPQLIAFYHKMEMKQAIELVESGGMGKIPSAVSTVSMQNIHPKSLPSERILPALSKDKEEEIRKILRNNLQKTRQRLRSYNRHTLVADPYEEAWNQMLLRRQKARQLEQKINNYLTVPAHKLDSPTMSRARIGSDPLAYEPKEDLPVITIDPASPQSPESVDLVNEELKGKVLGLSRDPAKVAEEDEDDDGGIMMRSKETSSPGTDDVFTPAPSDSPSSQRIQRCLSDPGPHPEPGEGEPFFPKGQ
S-tagged NHE1 V503-R698 (C561A) (subdomains A-C of the NHE1 C-terminal tail) (P19634, form named): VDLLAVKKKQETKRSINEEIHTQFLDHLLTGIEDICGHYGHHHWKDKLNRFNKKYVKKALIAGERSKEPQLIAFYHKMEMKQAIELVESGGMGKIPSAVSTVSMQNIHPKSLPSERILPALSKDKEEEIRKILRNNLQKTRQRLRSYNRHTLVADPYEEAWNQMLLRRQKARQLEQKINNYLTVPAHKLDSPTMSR

Legend:
[1] = target: T1, H6-CHP1 (calcineurin homologous protein 1) (UniProt Q99653); assay: co-purification (Ni-NTA + SEC); H6-CHP1 co-expressed with S-tagged NHE1 in E. coli; lysis in 6 M GdnHCl, capture on Ni-NTA, refolding on the column, elution with 500 mM imidazole; Superdex 200 in 20 mM TrisHCl pH 8.0, 150 mM NaCl, 0.1 mM CaCl2
T1 sequence: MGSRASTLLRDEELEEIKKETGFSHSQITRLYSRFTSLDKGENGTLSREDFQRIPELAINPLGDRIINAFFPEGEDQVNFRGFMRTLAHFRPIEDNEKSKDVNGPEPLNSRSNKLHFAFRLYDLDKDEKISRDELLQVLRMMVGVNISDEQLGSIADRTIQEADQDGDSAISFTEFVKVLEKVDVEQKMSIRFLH

[2] = target: full length NHE1 with the LID4G-mutations (I574G, F576G, I586G, L588G) (human) (UniProt P19634); assay: Western blot for dimers in cell lysates; lysates of AP-1 cells stably expressing wt- or 4G-NHE1; details only in Supplementary Fig. S11
[3] = target: wild-type human Na+/H+ exchanger 1 (NHE1) (human) (UniProt P19634); assay: as above

- binding [1]: binds
Substance: S-tagged NHE1 V503-R698 (C561A) (subdomains A-C of the NHE1 C-terminal tail) (from UniProt P19634 503-698) (domain or fragment)

- binding [2]: binds
Substance: full length NHE1 with the LID4G-mutations (I574G, F576G, I586G, L588G) (from UniProt P19634 1-815)

- binding [3]: binds
Substance: wild-type human Na+/H+ exchanger 1 (NHE1) (from UniProt P19634 1-815)
